# Measurements taken from PubChem BioAssay AID493014 (National Center for Advancing Translational Sciences (NCATS), 2011).
# This is one part of the list. Shown are side measurements of this screen, not its main read-out; they come without a call. Compounds called inactive in the main read-out are mostly missing here. Potencies come from curve fits of mixed quality, noted in brackets.
# Test: qHTS Assay to Find Inhibitors of Chronic Active B-Cell Receptor Signaling
# Conditions: ABC-DLBCL IkBa-CBG/CBR reporter, luminescence ratio (green luciferase fused to IkBa over red control in TMD8 lymphoma cells), 4 h
# Method in brief: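 Doxycycline induced both beetle luciferases in TMD8 lymphoma cells; IKK-driven degradation limits the IkappaBalpha-fused green signal, while red luminescence normalises for cell number and nonspecific effects. Compounds tested up to 46 uM, 4 hrs.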
# [1] = measured here: CBR red luminescence, cell number
# [2] = measured here: IkBa-CBG green luminescence
SMILES,AC50 [1],AC50 [2]
Cc1cccc(OCC(=O)NC(=S)NNC(=O)c2ccncc2)c1,"3.55 µM [rising, partial curve, poor fit]",
COC(=O)c1c(NC(=O)C2CC2)sc2c1CCCC2,"13 µM [rising, partial curve, poor fit]",
CN1CCc2cc(Cl)c(O)cc2[C@@H](c2ccccc2)C1,"35.5 µM [falling, single point]",
Cn1c(N)c(C(=O)Nc2ccc(-c3ccccc3)cc2)sc1=S,"20 µM [falling, single point]",
O=C(NCCCN1CCOCC1)c1cc(-c2ccc(F)cc2)no1,"5.62 µM [falling, partial curve]",
O=c1cc(N2CCCCC2)c2ccccc2o1,"35.5 µM [falling, partial curve, poor fit]",
Cc1nc(NC(N)=S)sc1C(=O)Nc1ccccc1,"12.6 µM [falling, partial curve, poor fit]",
CCCNC(=O)c1onc(CSc2ccccc2)c1C(=O)NCCC,"16.4 µM [falling, single point]",
CCN1/C(=C/c2ccc3cc(C)ccc3[n+]2CC)Sc2ccccc21,"18.4 µM [falling, single point]",
c1csc(Cn2nnnc2CN2CCN(c3nc4ccccc4s3)CC2)c1,"35.5 µM [falling, single point]",
COCCCNC(=O)c1ccc2c(c1)nc(C)n2-c1cccc(C)c1,"35.5 µM [falling, single point]",
CC(C)C(=O)Nc1ccc2nn(-c3ccccc3)nc2c1,"0.0891 µM [rising, full curve, poor fit]",
CC(C)[C@@H]1CC[C@@H](C)C[C@H]1OC(=O)C[n+]1cc(-c2ccc(Cl)cc2)n2c1CCCCC2,"7.94 µM [falling, partial curve, poor fit]",
CCn1c(SCC(=O)c2ccccc2)nc2c(c1=O)SC(C)C2 (stereo unspecified),"2.06 µM [falling, partial curve, poor fit]",
O=C(Nc1ccc(F)cc1F)Nc1ccc(F)cc1F,"20 µM [falling, single point]",
Cc1cc2cc(CNC(=S)Nc3ccc(OC(F)(F)F)cc3)ccc2n1C,"10.3 µM [rising, partial curve]",
Cc1ccccc1Cn1cc(/C=N/n2cnnc2)c2ccccc21,"6.51 µM [falling, single point]",
COc1ccc(NC(=O)Nc2ccc3c(c2)C(=O)N([C@@H](C)CO)C[C@@H](C)[C@@H](CN(C)S(=O)(=O)c2cn(C)cn2)O3)cc1,"20.6 µM [rising, single point]",
Cc1cc2nccc(-c3ccc(Cl)cc3Cl)n2n1,"35.5 µM [rising, single point]",
COc1ccc(C2=Nn3c(nnc3C3CCCCC3)SC2)cc1OC,"0.366 µM [rising, partial curve, poor fit]","0.58 µM [falling, full curve]"
O=C(O)CNC(=O)C1COc2ccccc2O1 (stereo unspecified),"0.0517 µM [rising, full curve, poor fit]",

# Look-ups from above:
# Entry for `O=C(NCCCN1CCOCC1)c1cc(-c2ccc(F)cc2)no1` under AC50 [1]: 5.62 µM [falling, partial curve]
# Entry for `CCn1c(SCC(=O)c2ccccc2)nc2c(c1=O)SC(C)C2` (stereo unspecified) under AC50 [1]: 2.06 µM [falling, partial curve, poor fit]
# Entry for `O=C(Nc1ccc(F)cc1F)Nc1ccc(F)cc1F` under AC50 [1]: 20 µM [falling, single point]

# The list continues:

SMILES,AC50 [1],AC50 [2]
CC(=O)Nc1ccc(-c2csc(NC(=O)C3CCN(S(=O)(=O)c4cccs4)CC3)n2)cc1,"29.1 µM [falling, partial curve, poor fit]",
O=C(CN(CCc1ccccc1)C(=O)c1csnn1)NC1CCCC1,"15.8 µM [rising, partial curve, poor fit]",
O=C(CN1C(=O)NC2(CCCCCCC2)C1=O)Nc1ccc(Br)cc1,"9.2 µM [falling, partial curve]",
COc1ccc(-n2c(Cc3cccn3C)nnc2SCC(=O)N2CCCc3ccccc32)cc1,"10 µM [falling, partial curve]",
O=C(/C=C/Nc1cccc([N+](=O)[O-])c1)c1cccs1,"11.6 µM [falling, partial curve, poor fit]",
Oc1ccc(-c2csc(Nc3ncccn3)n2)cc1,"1.12 µM [falling, full curve]",
O=c1c2cc(NC(=S)NCCCN3CCC(Cc4ccccc4)CC3)ccc2nc2n1CCCCC2,"15.8 µM [falling, single point]",
CN1CCCC1CCNc1ccc2oc3ccccc3c(=O)c2c1 (stereo unspecified),"10 µM [falling, partial curve, poor fit]",
CCN(CC(=O)Nc1ccc2c(c1)OCCO2)C(=O)CC1CCCC1,"0.58 µM [rising, partial curve, poor fit]",
Cc1cc(OCCn2cc(/C(N)=N/O)c3ccccc32)ccc1Cl,"1.12 µM [rising, full curve, poor fit]",
COc1ccc(S(=O)(=O)/N=C2\C=C(Nc3ccc(O)cc3)C(=O)c3ccccc32)cc1,"1.12 µM [falling, full curve]",
Cc1cc2nc(-c3ccc(SCc4ccccn4)nc3)[nH]c2cc1C,"11.2 µM [falling, partial curve, poor fit]",
NC(=O)Cc1ccc(Nc2nnc(-c3ccccc3)c3ccccc23)cc1,"29.1 µM [falling, single point]",
COc1ccc(CN2CCN(C(=O)c3cccc4ccccc34)CC2)cc1Br,"15.8 µM [falling, partial curve, poor fit]",
Cc1ccc(NC(=O)c2[nH]cnc2C(=O)NN)cc1,"35.5 µM [falling, single point]",
COc1cccc(C(=O)N2CCN(Cc3cccc(F)c3)CC2)c1,"4.61 µM [falling, single point]","3.26 µM [rising, partial curve, poor fit]"
O=C(Nc1ccc2c(c1)OCO2)c1cc(C2CC2)on1,"13 µM [falling, single point]",
COC(=O)c1sccc1NC(=O)COc1ccc(C)cc1,"0.447 µM [falling, full curve, poor fit]",
NS(=O)(=O)c1ccc(CCNc2ccc(C(F)(F)F)cn2)cc1,"35.5 µM [rising, single point]",
COc1ccccc1NC(=O)CSc1nnc(Cn2cnc3ccccc32)n1C,"14.6 µM [rising, partial curve, poor fit]",
CCOC(=O)CNC(=O)CSc1cc(C)nc2ccc(OC)cc12,"3.16 µM [rising, single point]",

# Part of the list above, bar-delimited:
SMILES | AC50 [1] | AC50 [2]
O=C(/C=C/Nc1cccc([N+](=O)[O-])c1)c1cccs1 | 11.6 µM [falling, partial curve, poor fit] | 
Cc1ccc(NC(=O)c2[nH]cnc2C(=O)NN)cc1 | 35.5 µM [falling, single point] | 

# The results go on:

SMILES,AC50 [1],AC50 [2]
CCC(c1nnnn1CCc1ccccc1)N(Cc1ccco1)Cc1cc2cccc(C)c2[nH]c1=O (stereo unspecified),"13 µM [falling, partial curve, poor fit]",
COc1ccc(/C=C/c2ccc3cccc(O)c3n2)c(OC)c1OC,,"20 µM [falling, single point]"
O=C(N/N=C/c1cc(Br)cs1)c1c[nH]c2ccccc12,"7.08 µM [falling, partial curve, poor fit]",
NC(N)=NC1=NC(=O)C(Cc2ccccc2)S1 (stereo unspecified),"3.55 µM [rising, full curve, poor fit]",
CN(C(=O)Cn1nnc(-c2ccc(F)cc2)n1)C1CCS(=O)(=O)C1 (stereo unspecified),"1.64 µM [falling, partial curve, poor fit]",
O=C1C=C(c2cc(C(F)(F)F)cc(C(F)(F)F)c2)C[C@@H](c2ccc3c(c2)OCO3)C1,"29.1 µM [rising, single point]",
Cc1cccc(Nc2nnc(SCC(=O)Nc3ccc(C(=O)O)cc3)s2)c1,"12.6 µM [falling, single point]",
Fc1ccc(CNC(=S)Nc2ccc(Cl)cc2)cc1,"17.8 µM [rising, partial curve, poor fit]",
CSc1ccc(C(c2c(C)[nH][nH]c2=O)c2c(C)[nH][nH]c2=O)cc1,"3.16 µM [falling, full curve, poor fit]",
CCN(CC(=O)NCc1ccc(F)cc1)C(=O)COc1ccc(C)c(C)c1,"0.103 µM [rising, full curve, poor fit]",
COc1ccc(/C(C)=N/NC(=O)c2ccccc2OCc2ccccc2)c(OC)c1,"11.2 µM [falling, partial curve]",
COCCCNC(=O)C(=O)Nc1ccc2c(c1)N(S(=O)(=O)c1cccs1)CCC2,"2.06 µM [rising, partial curve, poor fit]","16.4 µM [falling, partial curve]"
Cc1ccc(OCc2cc(C(=O)N(C)Cc3cc(C4CC4)n[nH]3)no2)cc1C,"17.8 µM [falling, single point]",
CC(O)CN(C)CC/C=C1/c2ccccc2CSc2ccccc21 (stereo unspecified),"29.1 µM [falling, partial curve, poor fit]",
O=C(COC(=O)C1CC1)Nc1ccc(Cl)cc1Cl,"2.59 µM [rising, full curve, poor fit]",
COC(=O)c1cc2c(s1)-c1ccc(OC)cc1CC2,"10 µM [rising, partial curve, poor fit]",
CC(C)(C)N(NC(=O)Nc1ccc(Cl)cc1)C(=O)c1ccccc1,"15.8 µM [rising, single point]",
COc1ccc(-c2nc3ccccc3c(=O)n2NC(=O)c2cccnc2Cl)cc1OC,"25.9 µM [rising, single point]",
Cn1c(SCc2ccc(F)cc2)nnc1-c1cnccn1,"1.12 µM [rising, full curve, poor fit]",
O=C(N/N=C/c1cccnc1)c1ccc(O)cc1,"5.01 µM [falling, full curve, poor fit]",
